From the supplement of paper PMC10338343
± gives the standard deviation. Only a part is listed here, and it is no random draw. Many of these values have a large error. This is one part of the list.

Experiments:
[1] = system: MILI (PIWIL2) piRISC loaded with L1MC piRNA (26 nt); test: pre-steady-state target cleavage rate (min^-1); higher = faster piRNA-guided slicing of the target; conditions: guide: L1MC piRNA 5'p-UAACUAAAUACUAUGCAAGCUGUAGG
Method in brief: (§1)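 Cleave-'n-Seq: a transcribed, DNA-blocked target RNA library (0.1 nM) was mixed with 1 nM active affinity-purified piRISC carrying one synthetic guide, with or without 500 nM GTSF1 partner protein, in HEPES–potassium acetate buffer at 33 °C for 0–8 or 0–960 min. Uncleaved targets were sequenced and normalised to depth and to weakly complementary targets. Three trials were pooled, and k3 was capped at 0.0001 min^-1. The pre-steady-state cleavage rate came from a burst-and-steady-state fit.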

[2] = system: EfPiwi piRISC loaded with L1MC piRNA (26 nt); test: pre-steady-state target cleavage rate (min^-1); guide: L1MC piRNA 5'p-UAACUAAAUACUAUGCAAGCUGUAGG; MIWI and MILI are mouse PIWI proteins and EfPiwi is from a freshwater sponge; tags in brackets are library labels; higher = faster piRNA-guided slicing of the target
Method in brief: as §1

[3] = auxiliary factor: 500 nM mouse GTSF1
[4] = auxiliary factor: none (no GTSF1)
[5] = auxiliary factor: 500 nM Ephydatia muelleri Gtsf1
[6] = auxiliary factor: none (no Gtsf1)

Sequence	pre-steady-state target cleavage rate [1, 3]	pre-steady-state target cleavage rate [1, 4]	pre-steady-state target cleavage rate [2, 5]	pre-steady-state target cleavage rate [2, 6]
UCCUGCUAGAGCUUGCAUUGUAUUUAGUUA	0.219 ± 0.018	0.0097 ± 0.0023	0.00751 ± 0.0022	
UCCUGGAUGUGCUUACAUAGUAUUUAGUUA	0.122 ± 0.015	0.0117 ± 0.0028	0.0113 ± 0.0041	
UCCUGGAACAGCUUGCUUAGUAUUUAGAAA	0.142 ± 0.029	0.00226 ± 0.0031	0.00132 ± 0.0043	
UCCUGGAUGUCGAUGCAUAGUAUUUACUUA	0.0276 ± 0.01	0.00114 ± 0.0047	0.00125 ± 0.0059	
UCCUGGAAAGCUUGCAUAGUAUUUAGUUA	0.276 ± 0.016	0.00624 ± 0.0022	0.035 ± 0.0098	
UCCUGGAUCACUUGCAUAGUAUUUAGUUA	0.214 ± 0.018	0.0066 ± 0.0022	0.0567 ± 0.014	
UCCUCCUAGAGCUUGCAUAGUAUAUAGUUA	0.249 ± 0.029	0.00315 ± 0.0025	0.00597 ± 0.0022	
UCCUCCUUCAGCUUGCAUAGUAUUUAGAUA	0.157 ± 0.022	0.00242 ± 0.0024	0.00476 ± 0.0027	
UCCUGGAUCAGCUUGCAUAGUAUUUUCAUA	0.0451 ± 0.011	0.00167 ± 0.003		0.000312 ± 0.023
UCCUGCUACAGCUUGCAAAGUAUUAAGUUA	0.146 ± 0.019	0.00367 ± 0.0025	0.00445 ± 0.0021	
UCCUGGAUGUCGAUGCAAAGUAUAUAGUUA	0.00242 ± 0.0041	0.00102 ± 0.0059		0.000434 ± 0.02
UCCUGGAACAGCUGUGCAUAGUAUUUAGUUA	0.206 ± 0.015	0.00954 ± 0.0024	0.00999 ± 0.0023	
UCCUGGAUGUCGAACGUUAAGUAUUUAGUUA	0.000351 ± 0.02	0.00027 ± 0.013		0.000176 ± 0.039
UCCUCCUACAGCUUGCAUAGUUAUUAGUUA	0.0492 ± 0.015	0.00242 ± 0.0032	0.0094 ± 0.0036	
UCCUGGAACAGCUUGCAUAGUAUUUAGUGUA	0.231 ± 0.018	0.00523 ± 0.0026	0.00557 ± 0.0021	
UCCUGGAACGCUUGCAUAGUAUUUAGUUA	0.239 ± 0.015	0.00644 ± 0.0019	0.0259 ± 0.0076	
UCCUGGAUGUCCUUGCAUAGUAAAUAGUUA	0.034 ± 0.0081	0.00497 ± 0.0022	0.000864 ± 0.0084	
UCCUGGAUGAGCUUGCAUAGUAUUUGGUUA	0.203 ± 0.025	0.00663 ± 0.0031	0.00713 ± 0.002	
UCCUCCUUGAGCUUGCAUAGUAUUUAGUUA	0.216 ± 0.018	0.0051 ± 0.0021	0.0223 ± 0.0062	

Sequence	pre-steady-state target cleavage rate [1, 3]	pre-steady-state target cleavage rate [1, 4]	pre-steady-state target cleavage rate [2, 5]	pre-steady-state target cleavage rate [2, 6]
UCCUGGAACACCUUGCAUAGUAUUUACUUA	0.0546 ± 0.018	0.00241 ± 0.0036	0.00139 ± 0.0043	
UCCUGGAACUGCUUGGAUAGUAUUUAGUUA	0.222 ± 0.013	0.0109 ± 0.0023	0.0527 ± 0.014	
UCCUGGAUGUGCUUGCAUAGUUUUUACUUA	0.00432 ± 0.0043	0.00107 ± 0.0069	0.000497 ± 0.0077	
UCCUGGAUGAGCUAGCAUAGUAUUUUGUUA	0.159 ± 0.036	0.00273 ± 0.0031	0.00327 ± 0.003	
UCCUGGAUGAGCUUGGAUAGUAAUUAGUUA	0.1 ± 0.02	0.00311 ± 0.0026	0.00302 ± 0.0021	
UCCUGGAUGAGCUAGCAUACUAUUUAGUUA	0.0848 ± 0.017	0.00398 ± 0.0027	0.00286 ± 0.002	
UCCUGGUUGAGCUUGCAUAGUAUUUAGUUA	0.179 ± 0.017	0.0113 ± 0.0033		0.000331 ± 0.061
UCCUGGAUGUCGUUGCAUAGAAUUUAGUAA	0.00115 ± 0.0061	0.000481 ± 0.012		0.000251 ± 0.025
UCCUGGUACAGCUUGCAAGUAUUUAGUUA	0.113 ± 0.014	0.00636 ± 0.0022		0.000822 ± 0.012
UCCUGGAUCAGCUAGCAUUGUAUUUAGUUA	0.107 ± 0.014	0.00287 ± 0.0024	0.00245 ± 0.0025	
UCCUGGUACAGCUUGCAUUGUAUUUACUUA	0.05 ± 0.015	0.00144 ± 0.0052	0.000962 ± 0.0051	
UCCUGGAACACGAUGCAUAGUAUUUAGUUA	0.14 ± 0.017	0.00495 ± 0.0023		0.000403 ± 0.02
UCCUCCUACAGCUUGCAAAGAAUUUAGUUA	0.0165 ± 0.0051	0.0022 ± 0.0027		0.000641 ± 0.0083
UCCUGCUACAGCUUGCAUAGAAUUUACUUA	0.107 ± 0.031	0.00114 ± 0.0048	0.00189 ± 0.0031	
UCCUCCUACUGCUUGCAUACUAUUUAGUUA	0.0694 ± 0.011	0.00355 ± 0.0019	0.0106 ± 0.0044	
UCCUGGUUCAGCUAGCAUAGUAUUUAGUUA	0.239 ± 0.026	0.0116 ± 0.0027	0.0263 ± 0.0083	
UCCUGGAUGUGCUUGGAUAGUUUUUAGUUA	0.00761 ± 0.0046	0.00414 ± 0.0024	0.000358 ± 0.014	
UCCUGCUUCAGCUUGCAUAGUAUUUAGUAA	0.224 ± 0.025	0.00397 ± 0.002	0.00811 ± 0.0033	

A second format for part of the listing above:
UCCUGGUACAGCUUGCAAGUAUUUAGUUA
  pre-steady-state target cleavage rate [1, 3] = 0.113 ± 0.014
  pre-steady-state target cleavage rate [1, 4] = 0.00636 ± 0.0022
  pre-steady-state target cleavage rate [2, 6] = 0.000822 ± 0.012
UCCUGGAUCAGCUAGCAUUGUAUUUAGUUA
  pre-steady-state target cleavage rate [1, 3] = 0.107 ± 0.014
  pre-steady-state target cleavage rate [1, 4] = 0.00287 ± 0.0024
  pre-steady-state target cleavage rate [2, 5] = 0.00245 ± 0.0025
